From publication doi:10.1101/2025.11.25.690242 come the findings set out here.

Chains of the proteins cited; added tags and fusions are not shown.
UniProt P97302: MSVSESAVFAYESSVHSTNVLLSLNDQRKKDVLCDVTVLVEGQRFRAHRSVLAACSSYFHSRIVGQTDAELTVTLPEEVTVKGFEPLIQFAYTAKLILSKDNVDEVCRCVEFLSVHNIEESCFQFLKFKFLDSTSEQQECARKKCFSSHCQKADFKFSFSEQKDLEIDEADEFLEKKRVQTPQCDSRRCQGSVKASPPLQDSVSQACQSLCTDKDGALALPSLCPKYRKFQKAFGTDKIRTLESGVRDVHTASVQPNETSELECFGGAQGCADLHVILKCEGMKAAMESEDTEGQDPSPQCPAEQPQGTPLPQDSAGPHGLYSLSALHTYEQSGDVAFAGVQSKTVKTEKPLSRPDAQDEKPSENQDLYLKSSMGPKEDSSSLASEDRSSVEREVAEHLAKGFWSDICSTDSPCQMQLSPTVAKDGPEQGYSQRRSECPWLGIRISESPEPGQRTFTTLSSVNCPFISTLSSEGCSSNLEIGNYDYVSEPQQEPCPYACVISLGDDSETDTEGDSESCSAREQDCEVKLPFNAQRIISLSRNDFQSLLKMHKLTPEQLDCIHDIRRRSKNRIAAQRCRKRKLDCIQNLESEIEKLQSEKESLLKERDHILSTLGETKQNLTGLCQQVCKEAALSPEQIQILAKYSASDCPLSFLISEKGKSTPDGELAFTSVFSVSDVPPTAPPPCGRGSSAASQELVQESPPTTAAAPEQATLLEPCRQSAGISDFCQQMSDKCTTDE
UniProt P54843: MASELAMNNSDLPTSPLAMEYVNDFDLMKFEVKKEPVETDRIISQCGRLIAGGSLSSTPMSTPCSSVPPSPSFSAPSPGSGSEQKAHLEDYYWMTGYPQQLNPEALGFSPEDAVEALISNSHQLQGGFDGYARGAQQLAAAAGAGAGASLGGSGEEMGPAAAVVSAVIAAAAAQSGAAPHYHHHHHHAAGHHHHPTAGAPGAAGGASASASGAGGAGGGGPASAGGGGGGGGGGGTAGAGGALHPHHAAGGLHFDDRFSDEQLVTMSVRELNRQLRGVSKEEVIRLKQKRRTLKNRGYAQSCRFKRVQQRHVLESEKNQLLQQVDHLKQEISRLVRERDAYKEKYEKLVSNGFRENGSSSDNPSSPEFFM

No constants are given. Whether binding was seen depends on the method and setting. Binding seen in cells or lysates may run through a third protein. Some binding calls cover weakened binding; strength is not graded here.

This assay has as its target BTB and CNC homology factor 1 (BACH1) (mouse (endogenous in murine thymocytes)) (UniProt P97302). In words: co-IP.

In the case of “transcription factor cMAF (from UniProt P54843 1-370)”, the binding result is given as “binds”.
